From patent US20240239840A1, “method for the treatment of pain and a medicinal product for administration during pain” (PVP LABS PTE.LTD., priority 2023, published 2024)

Assay: phase II clinical trial, safety in cancer patients experiencing pain
Conditions: stage 2
Description: Pain intensity was evaluated on a numeric rating scale (NRS) from 0 to 10. […] The patients' physical activity score on the Eastern Cooperative Oncology Group (ECOG) performance status scale was 0 to 3, i.e. they were active and were up and about for over 50% of waking hours (grade 2 on the ECOG scale) or were capable of only limited self-care and confined to bed or chair more than 50% of waking hours (grade 3 on the ECOG scale).
The study was carried out in two stages. The total duration of the trial for each patient was 20 days or less. […] The number of doses depended on pain intensity as evaluated on the NRS scale for each individual patient.
Comments: 1. […] 2. SAE=serious adverse event.

CN1CC[C@]23c4c5ccc(O)c4O[C@H]2[C@@H](O)C=C[C@H]3[C@H]1C5 [morphine]
Retention of urine, % of the total number of AEs for the group: (3.7) %
